The exact form of at least one protein or probe is not confirmed. Where cells or extracts were used, other partners may take part.
Biological target: CREB (endogenous, U251 nuclear extract) (UniProt P16220)
Test: EMSA, supershift
Conditions: Non-radioactive EMSA kit (Viagene), 10 ug U251 nuclear extract, room temperature, 20 min with competitor then 20 min with biotin probe, 6% native PAGE; protein in an extract; label: biotin (labelled probe, unlabelled as competitor)

Protein sequences, listed by entry. Tags and fused reporters are not part of them. Lines headed by an entry give the natural chain unless they say otherwise; changes in a name come on top.
UniProt P16220: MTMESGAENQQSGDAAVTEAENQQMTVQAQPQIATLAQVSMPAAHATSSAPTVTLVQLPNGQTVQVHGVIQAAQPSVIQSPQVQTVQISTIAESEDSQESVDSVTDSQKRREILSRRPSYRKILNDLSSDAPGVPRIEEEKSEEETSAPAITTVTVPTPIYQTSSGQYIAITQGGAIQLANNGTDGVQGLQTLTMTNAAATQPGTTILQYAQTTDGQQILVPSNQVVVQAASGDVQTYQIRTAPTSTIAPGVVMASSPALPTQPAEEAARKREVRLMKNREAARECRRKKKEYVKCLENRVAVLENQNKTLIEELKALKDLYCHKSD

| Sequence | binding result |
| --- | --- |
| AAGCCACTGGAGGGCACGTCACGGAGTG (double strand) [wild-type CREB-E (CRE of GDNF enhancer II)] | binds |
| CGCGCCGGTTGACGTGGTGTCTCGTTCG (double strand) [wild-type CREB-S (CRE of GDNF silencer II)] | binds |
